No constants are given. Whether binding was seen depends on the method and setting. In cells and extracts the contact can be indirect. A yes stands for co-enrichment or nearness to the bait. Other partners may have been found. A no says only that the protein was not detected with the bait.

Chains of the proteins cited; added tags and fusions are not shown. Residues count along the entry.
UniProt Q13620: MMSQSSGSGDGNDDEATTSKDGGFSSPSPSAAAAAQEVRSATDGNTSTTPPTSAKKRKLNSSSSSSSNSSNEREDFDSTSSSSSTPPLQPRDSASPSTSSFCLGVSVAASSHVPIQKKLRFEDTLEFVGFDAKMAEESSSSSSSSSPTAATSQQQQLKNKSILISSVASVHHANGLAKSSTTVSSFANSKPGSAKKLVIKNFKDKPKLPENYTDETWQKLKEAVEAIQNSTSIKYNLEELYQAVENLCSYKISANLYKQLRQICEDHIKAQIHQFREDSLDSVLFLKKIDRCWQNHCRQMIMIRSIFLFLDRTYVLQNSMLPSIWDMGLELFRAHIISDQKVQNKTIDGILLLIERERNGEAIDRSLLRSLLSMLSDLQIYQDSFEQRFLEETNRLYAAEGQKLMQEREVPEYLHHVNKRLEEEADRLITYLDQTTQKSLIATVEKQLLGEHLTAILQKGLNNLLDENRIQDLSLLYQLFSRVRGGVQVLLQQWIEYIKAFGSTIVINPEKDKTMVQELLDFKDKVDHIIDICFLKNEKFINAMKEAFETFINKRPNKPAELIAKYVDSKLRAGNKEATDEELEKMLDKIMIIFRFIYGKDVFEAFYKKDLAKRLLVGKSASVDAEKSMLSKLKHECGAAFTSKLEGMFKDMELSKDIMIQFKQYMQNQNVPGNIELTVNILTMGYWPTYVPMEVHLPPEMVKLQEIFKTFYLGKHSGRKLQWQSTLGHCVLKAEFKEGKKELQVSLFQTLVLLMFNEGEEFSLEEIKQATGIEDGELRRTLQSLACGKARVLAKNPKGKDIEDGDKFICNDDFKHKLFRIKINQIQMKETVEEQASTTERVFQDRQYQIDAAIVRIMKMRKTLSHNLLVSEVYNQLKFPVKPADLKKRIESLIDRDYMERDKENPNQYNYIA
UniProt Q13619: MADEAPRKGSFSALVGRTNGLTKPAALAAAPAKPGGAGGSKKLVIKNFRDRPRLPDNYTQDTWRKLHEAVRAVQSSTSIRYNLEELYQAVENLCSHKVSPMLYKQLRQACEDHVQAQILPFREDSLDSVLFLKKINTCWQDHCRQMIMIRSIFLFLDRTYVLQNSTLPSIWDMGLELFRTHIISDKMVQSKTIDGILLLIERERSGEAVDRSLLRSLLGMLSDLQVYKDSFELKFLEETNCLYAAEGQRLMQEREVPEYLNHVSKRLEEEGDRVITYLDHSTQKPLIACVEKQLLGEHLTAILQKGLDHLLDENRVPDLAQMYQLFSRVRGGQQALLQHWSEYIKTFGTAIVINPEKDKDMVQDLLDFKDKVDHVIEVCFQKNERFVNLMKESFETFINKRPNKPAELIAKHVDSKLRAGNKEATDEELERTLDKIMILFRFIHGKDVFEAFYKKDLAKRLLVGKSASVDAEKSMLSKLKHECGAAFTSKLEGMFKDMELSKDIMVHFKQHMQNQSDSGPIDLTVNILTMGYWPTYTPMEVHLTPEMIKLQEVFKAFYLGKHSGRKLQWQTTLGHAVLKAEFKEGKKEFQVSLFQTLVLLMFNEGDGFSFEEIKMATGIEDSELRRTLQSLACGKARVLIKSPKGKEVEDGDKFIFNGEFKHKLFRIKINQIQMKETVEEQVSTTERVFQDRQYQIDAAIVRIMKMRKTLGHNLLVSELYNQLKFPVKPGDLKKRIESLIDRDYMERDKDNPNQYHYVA
UniProt P35613, residues 22-385: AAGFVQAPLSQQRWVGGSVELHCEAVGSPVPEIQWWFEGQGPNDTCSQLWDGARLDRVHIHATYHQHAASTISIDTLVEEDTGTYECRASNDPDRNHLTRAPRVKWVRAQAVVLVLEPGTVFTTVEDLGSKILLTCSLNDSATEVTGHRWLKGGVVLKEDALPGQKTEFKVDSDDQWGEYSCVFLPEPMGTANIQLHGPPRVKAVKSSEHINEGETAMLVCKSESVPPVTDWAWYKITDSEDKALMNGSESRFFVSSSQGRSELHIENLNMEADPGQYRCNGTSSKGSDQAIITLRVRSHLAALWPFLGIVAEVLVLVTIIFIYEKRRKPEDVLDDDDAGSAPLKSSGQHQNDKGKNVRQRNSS
UniProt P61077: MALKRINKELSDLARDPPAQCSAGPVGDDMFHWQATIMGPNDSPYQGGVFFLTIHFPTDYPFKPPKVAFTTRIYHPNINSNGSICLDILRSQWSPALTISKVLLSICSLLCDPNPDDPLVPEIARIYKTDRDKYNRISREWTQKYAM
UniProt P61081: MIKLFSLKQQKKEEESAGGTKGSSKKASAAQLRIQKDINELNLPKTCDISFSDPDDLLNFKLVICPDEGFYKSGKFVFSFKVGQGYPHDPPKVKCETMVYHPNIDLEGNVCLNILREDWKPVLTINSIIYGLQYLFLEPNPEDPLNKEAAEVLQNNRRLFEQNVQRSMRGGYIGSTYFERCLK

For the assay, the target named is AGIA-AirID-CRBN-WT (UniProt Q96SW2). In words: proximity labelling; look-up of CRL4 components and known CRBN interactors in the LC-MS/MS analyses of AirID-CRBN cells (Supplementary Fig. 7); cell lines not given.

Take CUL4B (from UniProt Q13620 1-913): the binding result is reported as “binds”.
For CUL4A (from UniProt Q13619 1-759) the value was “binds”; for CD147 (from UniProt P35613 22-385), “binds”; for UBE2D3 (from UniProt P61077 1-147), “no binding”.
On to UBC12 (from UniProt P61081 1-183), for which the binding result is “binds”.
SQSTM1 (from UniProt Q13501 1-440): the binding entry is given as “binds”.
For TP53 (from UniProt P04637 1-393) the value was “binds”.

Source of the values: PMC8748630.
